# Record: PubChem BioAssay AID504774 (Drosophila RNAi Screening Center, 2011)
# Screen: 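Genes required for cells to withstand methyl methanesulphonate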 (primary screen)
# Cells: Drosophila Kc167 cells
# Knock-down reagent: long dsRNA against Drosophila genes, about 0.25 µg dsRNA per well
# Duration: about 6 days: 3 days knock-down, then 3 days with or without MMS
# Challenge: methyl methanesulphonate 0.004% (w/v) for 3 days after knock-down
# Read-out: 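ATP-dependent luminescence as a measure of live cells in MMS-exposed wells, quantile normalised within each plate, with replicate values also given as a mean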
# Direction: mean viability with MMS and viability with MMS: higher = more surviving cells after MMS
# The screen tested about 23,000 reagents; below is a random part of those that have a named target and a result. 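Values are quantile-normalised luminescence on an arbitrary scale; higher means more cells surviving MMS.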 A plus sign joins genes that one reagent is predicted to hit. Not all columns of the deposit are shown.
gene knocked down,amplicon,mean viability with MMS,"viability with MMS, replicate 1"
Swt1,DRSC20028,3.71e6,4.32e6
Polr3A,DRSC19766,3.27e6,3.65e6
Ugt35B1,DRSC16893,3.48e6,3.94e6
RhoGAP1A,DRSC20649,3.63e6,4.10e6
RhoGAP1A,DRSC20651,3.66e6,4.10e6
5-HT1A,DRSC05030,3.42e6,3.91e6
seq,DRSC06863,3.27e6,3.57e6
CG14565,DRSC11726,3.79e6,4.22e6
CG12680,DRSC17871,3.53e6,3.95e6
Mtk,DRSC07475,3.55e6,4.00e6
Tsp29Fb,DRSC03233,3.52e6,3.98e6
CG12831,DRSC06179,3.64e6,4.08e6
CG31974,DRSC00522,3.49e6,3.88e6
Sec61beta,DRSC07548,3.68e6,3.78e6
Sec61beta,DRSC21512,3.28e6,3.82e6
CG4991,DRSC19928,3.79e6,4.28e6
TwdlU,DRSC12224,3.42e6,3.76e6
dpr6,DRSC09005,3.17e6,3.64e6
dpr6,DRSC10162,3.61e6,4.02e6
dpr6,DRSC10163,2.01e6,4.24e6
Cdc37,DRSC08648,3.54e6,4.12e6
phu,DRSC16390,3.55e6,4.05e6
VGAT,DRSC07160,3.40e6,3.90e6
CG13360,DRSC18536,3.38e6,3.80e6
CG31205,DRSC13438,3.53e6,4.04e6
dyw,DRSC18228,3.51e6,4.05e6
Sap-r,DRSC16849,3.53e6,3.94e6
Sap-r,DRSC21916,3.62e6,4.04e6
Syx17,DRSC08591,3.54e6,4.06e6
CG3817,DRSC15515,3.53e6,4.03e6
CG18507,DRSC01334,3.48e6,3.91e6
CG18507,DRSC01914,3.64e6,4.17e6
CG17362,DRSC10267,3.34e6,3.80e6
Tsp29Fa,DRSC03232,3.71e6,4.16e6
Pdhb,DRSC14420,3.44e6,3.88e6
sncRNA:430e + His2A:CG33859 + His2A:CG33817 + 37 more,DRSC21264,3.29e6,3.77e6
subdued,DRSC15137,3.55e6,4.01e6
Sox15,DRSC07555,3.14e6,3.58e6
robl22E,DRSC00289,3.62e6,4.03e6
CG14070,DRSC02373,3.64e6,4.18e6
Lst8,DRSC18262,3.67e6,4.51e6
Fip1,DRSC12147,3.32e6,3.79e6
CG40341 (retired record),DRSC01767,3.56e6,4.05e6
CG40341 (retired record),DRSC03750,3.49e6,3.98e6
lambdaTry,DRSC06137,3.52e6,4.02e6
Rpt1,DRSC07542,2.84e6,3.52e6
RhoBTB,DRSC11877,3.52e6,3.97e6
Or63a,DRSC08681,3.55e6,4.02e6
CSN5,DRSC16592,3.51e6,3.85e6
CSN5,DRSC22381,3.42e6,3.79e6
mys,DRSC18799,3.51e6,3.83e6
ewg,DRSC18773,3.59e6,4.10e6
Prim2,DRSC11610,3.30e6,3.71e6
CG17195,DRSC15188,3.57e6,4.05e6
Polr2K,DRSC05535,3.48e6,3.91e6
CG8237,DRSC07119,3.40e6,3.83e6
Dnah3,DRSC08130,3.57e6,4.00e6
Dnah3,DRSC08513,3.59e6,4.11e6
CG10051,DRSC05959,3.71e6,4.14e6
CG5214,DRSC15739,3.82e6,4.09e6
CG5214,DRSC22842,3.55e6,4.00e6
Ugt316A1,DRSC10376,3.52e6,4.04e6
Arpc3B,DRSC20126,3.34e6,3.75e6
CG12699,DRSC06162,3.55e6,4.08e6
Atg3,DRSC10736,3.57e6,4.00e6
Atg3,DRSC21758,3.72e6,4.15e6
Npc1a,DRSC03378,3.47e6,4.19e6
kek2,DRSC03552,3.45e6,3.84e6
